According to the supplement of paper PMC12067093, “Discovery and optimisation of a covalent ligand for TRIM25 and its application to targeted protein ubiquitination” (Chemical Science, 2025):
This is one part of the list.

Chains of the proteins cited; added tags and fusions are not shown. Lines headed by an entry give the natural chain unless they say otherwise; changes in a name come on top.
UniProt Q9BX70: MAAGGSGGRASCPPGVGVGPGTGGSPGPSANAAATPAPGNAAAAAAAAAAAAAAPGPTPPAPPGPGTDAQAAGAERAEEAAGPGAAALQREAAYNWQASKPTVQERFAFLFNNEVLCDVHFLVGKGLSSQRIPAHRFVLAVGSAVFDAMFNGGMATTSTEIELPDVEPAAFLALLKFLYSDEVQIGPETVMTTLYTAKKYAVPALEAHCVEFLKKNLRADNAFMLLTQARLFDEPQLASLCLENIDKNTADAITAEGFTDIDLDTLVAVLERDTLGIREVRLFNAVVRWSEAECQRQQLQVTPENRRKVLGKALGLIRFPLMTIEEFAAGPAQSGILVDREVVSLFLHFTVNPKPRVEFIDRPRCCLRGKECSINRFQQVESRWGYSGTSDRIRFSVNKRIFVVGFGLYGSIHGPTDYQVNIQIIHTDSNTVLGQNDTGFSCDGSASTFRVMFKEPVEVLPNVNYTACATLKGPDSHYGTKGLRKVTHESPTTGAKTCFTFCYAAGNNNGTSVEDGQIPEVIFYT
UniProt Q9BV19: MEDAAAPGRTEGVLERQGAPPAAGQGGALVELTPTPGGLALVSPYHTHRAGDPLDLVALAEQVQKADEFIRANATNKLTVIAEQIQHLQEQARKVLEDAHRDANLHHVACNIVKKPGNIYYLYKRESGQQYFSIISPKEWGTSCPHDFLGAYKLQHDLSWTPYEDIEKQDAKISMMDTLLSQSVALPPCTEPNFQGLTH
UniProt O60566, whole entry, looked up: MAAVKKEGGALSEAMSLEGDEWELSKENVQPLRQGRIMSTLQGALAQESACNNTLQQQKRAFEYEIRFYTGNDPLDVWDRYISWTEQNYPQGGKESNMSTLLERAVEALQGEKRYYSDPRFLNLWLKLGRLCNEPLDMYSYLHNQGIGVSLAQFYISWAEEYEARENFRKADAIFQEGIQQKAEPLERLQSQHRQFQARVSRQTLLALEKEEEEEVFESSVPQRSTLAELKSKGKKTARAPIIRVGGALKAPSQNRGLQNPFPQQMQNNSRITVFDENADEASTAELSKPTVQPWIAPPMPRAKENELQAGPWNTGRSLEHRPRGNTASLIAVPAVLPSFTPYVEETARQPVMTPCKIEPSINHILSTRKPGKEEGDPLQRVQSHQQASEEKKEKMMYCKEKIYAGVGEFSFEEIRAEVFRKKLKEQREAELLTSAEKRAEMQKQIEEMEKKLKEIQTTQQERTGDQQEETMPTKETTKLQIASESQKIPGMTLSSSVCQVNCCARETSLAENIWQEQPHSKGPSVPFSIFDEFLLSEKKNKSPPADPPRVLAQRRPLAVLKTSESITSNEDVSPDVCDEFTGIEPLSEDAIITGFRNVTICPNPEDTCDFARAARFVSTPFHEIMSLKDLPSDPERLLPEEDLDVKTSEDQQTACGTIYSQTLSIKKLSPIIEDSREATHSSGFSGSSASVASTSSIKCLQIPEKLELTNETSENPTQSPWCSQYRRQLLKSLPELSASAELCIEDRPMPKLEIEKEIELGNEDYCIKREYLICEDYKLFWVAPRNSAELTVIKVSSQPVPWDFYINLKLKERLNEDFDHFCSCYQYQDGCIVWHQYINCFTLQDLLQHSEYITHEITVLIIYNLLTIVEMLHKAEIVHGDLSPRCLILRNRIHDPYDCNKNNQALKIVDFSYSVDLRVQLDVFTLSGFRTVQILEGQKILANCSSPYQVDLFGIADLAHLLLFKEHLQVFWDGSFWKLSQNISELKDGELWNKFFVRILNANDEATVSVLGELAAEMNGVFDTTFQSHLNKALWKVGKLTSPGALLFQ
UniProt Q92994: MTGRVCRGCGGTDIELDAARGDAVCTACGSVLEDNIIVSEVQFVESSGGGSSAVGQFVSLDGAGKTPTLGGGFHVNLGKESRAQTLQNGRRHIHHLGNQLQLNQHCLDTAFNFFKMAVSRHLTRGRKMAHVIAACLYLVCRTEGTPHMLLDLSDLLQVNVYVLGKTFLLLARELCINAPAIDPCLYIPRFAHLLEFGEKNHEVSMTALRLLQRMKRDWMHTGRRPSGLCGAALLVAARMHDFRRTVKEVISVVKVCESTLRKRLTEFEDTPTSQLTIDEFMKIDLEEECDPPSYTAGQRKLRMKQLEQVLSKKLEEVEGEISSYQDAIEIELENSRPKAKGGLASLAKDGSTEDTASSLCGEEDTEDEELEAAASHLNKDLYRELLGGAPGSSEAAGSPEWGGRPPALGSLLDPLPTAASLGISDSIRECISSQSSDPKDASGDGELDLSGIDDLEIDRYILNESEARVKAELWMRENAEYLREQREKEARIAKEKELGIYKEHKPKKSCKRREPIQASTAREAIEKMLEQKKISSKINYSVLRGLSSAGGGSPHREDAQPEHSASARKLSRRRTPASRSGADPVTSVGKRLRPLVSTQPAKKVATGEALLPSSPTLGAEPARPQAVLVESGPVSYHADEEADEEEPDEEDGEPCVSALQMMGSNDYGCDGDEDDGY
UniProt A6NDU8: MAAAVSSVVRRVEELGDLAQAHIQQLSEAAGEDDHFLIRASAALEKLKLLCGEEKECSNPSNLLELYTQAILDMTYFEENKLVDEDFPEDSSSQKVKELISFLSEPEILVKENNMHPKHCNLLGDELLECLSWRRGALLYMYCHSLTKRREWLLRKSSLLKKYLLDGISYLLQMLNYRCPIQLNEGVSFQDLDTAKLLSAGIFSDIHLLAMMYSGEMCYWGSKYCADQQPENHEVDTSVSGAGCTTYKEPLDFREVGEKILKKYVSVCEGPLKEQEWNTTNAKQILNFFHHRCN
UniProt P07360, whole entry: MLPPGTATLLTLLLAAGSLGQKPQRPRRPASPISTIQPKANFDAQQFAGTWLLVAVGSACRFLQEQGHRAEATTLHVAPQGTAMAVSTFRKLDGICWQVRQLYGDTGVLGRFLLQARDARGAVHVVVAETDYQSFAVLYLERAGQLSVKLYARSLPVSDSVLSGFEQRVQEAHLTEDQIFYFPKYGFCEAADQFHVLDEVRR
UniProt P27708: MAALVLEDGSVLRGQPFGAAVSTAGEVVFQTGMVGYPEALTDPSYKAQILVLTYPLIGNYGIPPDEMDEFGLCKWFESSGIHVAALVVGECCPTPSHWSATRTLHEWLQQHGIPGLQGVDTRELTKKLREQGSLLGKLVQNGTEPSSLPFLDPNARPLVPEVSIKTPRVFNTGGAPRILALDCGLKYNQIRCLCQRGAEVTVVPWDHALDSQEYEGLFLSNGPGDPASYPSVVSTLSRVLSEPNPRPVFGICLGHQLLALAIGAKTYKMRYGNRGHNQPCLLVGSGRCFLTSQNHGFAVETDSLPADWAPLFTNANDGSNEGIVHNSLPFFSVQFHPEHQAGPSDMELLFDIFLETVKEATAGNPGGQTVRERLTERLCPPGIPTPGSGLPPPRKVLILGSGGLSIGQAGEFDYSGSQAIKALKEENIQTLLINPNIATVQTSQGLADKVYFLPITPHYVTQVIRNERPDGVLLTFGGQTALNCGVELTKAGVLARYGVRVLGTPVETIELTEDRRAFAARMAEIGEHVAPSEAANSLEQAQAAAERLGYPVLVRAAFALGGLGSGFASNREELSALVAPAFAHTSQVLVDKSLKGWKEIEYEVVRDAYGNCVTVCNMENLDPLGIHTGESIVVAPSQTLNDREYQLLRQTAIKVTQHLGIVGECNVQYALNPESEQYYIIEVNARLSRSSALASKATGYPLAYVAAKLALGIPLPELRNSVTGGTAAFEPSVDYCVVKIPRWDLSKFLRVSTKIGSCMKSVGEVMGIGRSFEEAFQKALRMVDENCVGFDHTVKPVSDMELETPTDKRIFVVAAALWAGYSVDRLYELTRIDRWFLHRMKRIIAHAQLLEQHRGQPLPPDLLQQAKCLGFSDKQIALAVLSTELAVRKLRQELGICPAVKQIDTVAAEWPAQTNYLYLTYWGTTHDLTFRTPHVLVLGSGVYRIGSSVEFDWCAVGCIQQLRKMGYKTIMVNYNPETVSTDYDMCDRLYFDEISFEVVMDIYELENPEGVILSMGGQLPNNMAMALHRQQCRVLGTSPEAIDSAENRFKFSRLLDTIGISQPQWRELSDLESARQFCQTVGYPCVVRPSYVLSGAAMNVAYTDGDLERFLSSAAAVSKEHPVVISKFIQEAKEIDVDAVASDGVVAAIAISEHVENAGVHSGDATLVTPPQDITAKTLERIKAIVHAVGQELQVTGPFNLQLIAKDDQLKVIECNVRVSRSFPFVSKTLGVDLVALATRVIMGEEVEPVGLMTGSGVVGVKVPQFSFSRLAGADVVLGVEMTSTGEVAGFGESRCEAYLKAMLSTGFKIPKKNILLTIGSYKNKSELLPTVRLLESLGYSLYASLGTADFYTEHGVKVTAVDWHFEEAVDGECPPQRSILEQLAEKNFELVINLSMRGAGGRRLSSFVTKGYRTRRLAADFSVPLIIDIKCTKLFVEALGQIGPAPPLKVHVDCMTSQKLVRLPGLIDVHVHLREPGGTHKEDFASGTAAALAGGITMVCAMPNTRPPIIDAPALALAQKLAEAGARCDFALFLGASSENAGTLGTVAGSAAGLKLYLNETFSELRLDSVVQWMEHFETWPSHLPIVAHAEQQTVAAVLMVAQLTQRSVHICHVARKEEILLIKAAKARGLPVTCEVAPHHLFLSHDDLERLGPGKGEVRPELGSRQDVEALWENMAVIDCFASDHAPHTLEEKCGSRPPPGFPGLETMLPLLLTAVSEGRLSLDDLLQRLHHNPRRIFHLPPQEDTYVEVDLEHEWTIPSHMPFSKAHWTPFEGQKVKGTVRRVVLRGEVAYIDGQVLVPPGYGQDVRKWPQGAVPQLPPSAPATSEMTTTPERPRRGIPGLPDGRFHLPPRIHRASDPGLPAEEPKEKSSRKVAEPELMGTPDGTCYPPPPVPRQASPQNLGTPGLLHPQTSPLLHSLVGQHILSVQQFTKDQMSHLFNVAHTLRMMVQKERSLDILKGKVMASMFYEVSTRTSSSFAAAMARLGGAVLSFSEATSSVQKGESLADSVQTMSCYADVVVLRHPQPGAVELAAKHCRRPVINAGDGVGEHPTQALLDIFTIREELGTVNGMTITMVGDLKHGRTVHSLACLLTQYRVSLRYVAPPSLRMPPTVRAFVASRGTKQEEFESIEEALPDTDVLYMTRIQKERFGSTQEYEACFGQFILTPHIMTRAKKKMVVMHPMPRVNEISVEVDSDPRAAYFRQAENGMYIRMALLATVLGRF
UniProt Q9H0W9: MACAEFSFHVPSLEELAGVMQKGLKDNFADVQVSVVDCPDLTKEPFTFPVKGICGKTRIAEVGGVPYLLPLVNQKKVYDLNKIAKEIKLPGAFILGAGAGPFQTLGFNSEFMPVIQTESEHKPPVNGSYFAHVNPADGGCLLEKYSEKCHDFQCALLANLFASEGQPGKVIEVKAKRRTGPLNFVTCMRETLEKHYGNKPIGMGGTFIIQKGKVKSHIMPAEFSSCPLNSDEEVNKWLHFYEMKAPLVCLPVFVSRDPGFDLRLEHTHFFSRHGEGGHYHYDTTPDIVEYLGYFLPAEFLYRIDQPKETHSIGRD
UniProt P41223: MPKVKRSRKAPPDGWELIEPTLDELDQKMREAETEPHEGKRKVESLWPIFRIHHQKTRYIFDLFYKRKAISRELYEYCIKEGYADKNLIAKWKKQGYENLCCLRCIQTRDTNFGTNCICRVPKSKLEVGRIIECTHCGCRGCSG

Compound: Cc1cc(ccc1-c1ccccc1)C(=O)N1CCCN(CC1)C(=O)CCl [compound 10]
Assay: probe-labelled cysteine peptide fold change vs DMSO (competition) (log2 fold change); higher = less target engagement (more negative = stronger competition)
Details: THP-1, incubation time: 4 h
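Also: competitive profiling in live THP-1 cells: cysteine peptides tagged with an iodoacetamide desthiobiotin (IA-DTB) probe, intensity after compound treatment relative to DMSO-treated cells.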

C16orf62_Q7Z3J2_665_SMFCNLEPVLVQLIHSVNR (UniProt Q7Z3J2)
probe-labelled cysteine peptide fold change (10 µM): -0.0896 | probe-labelled cysteine peptide fold change (50 µM): 0.00123

BTK_Q06187_154_YHPCFWIDGQYLCCSQTAK (UniProt Q06187)
probe-labelled cysteine peptide fold change (10 µM): -0.033 | probe-labelled cysteine peptide fold change (50 µM): -0.0952

BRMS1_Q9HCU9_60_SECVSEMLDLEK (UniProt Q9HCU9)
probe-labelled cysteine peptide fold change (10 µM): 0.0333 | probe-labelled cysteine peptide fold change (50 µM): 0.096

BRD1_O95696_199_ESHCENQK (UniProt O95696)
probe-labelled cysteine peptide fold change (10 µM): -0.126 | probe-labelled cysteine peptide fold change (50 µM): -0.432

BTBD2_Q9BX70_294_WSEAECQR (UniProt Q9BX70)
probe-labelled cysteine peptide fold change (10 µM): -0.108 | probe-labelled cysteine peptide fold change (50 µM): -0.101

C17orf75_Q9HAS0_296_FCEDWMQAFLNGAK (UniProt Q9HAS0)
probe-labelled cysteine peptide fold change (10 µM): 0.213 | probe-labelled cysteine peptide fold change (50 µM): 0.513

BSDC1_Q9NW68_49_DLTEFTQVVQHDTACTIAATASVVK (UniProt Q9NW68)
probe-labelled cysteine peptide fold change (10 µM): -0.0355 | probe-labelled cysteine peptide fold change (50 µM): -0.788

BTN3A3_O00478_166_GYEDGGIHLECR (UniProt O00478)
probe-labelled cysteine peptide fold change (10 µM): -0.0485 | probe-labelled cysteine peptide fold change (50 µM): 0.291

C1orf50_Q9BV19_144_EWGTSCPHDFLGAYK (UniProt Q9BV19)
probe-labelled cysteine peptide fold change (10 µM): 0.181 | probe-labelled cysteine peptide fold change (50 µM): 0.135

CALR_P27797_137_LFPNSLDQTDMHGDSEYNIMFGPDICGPGTKK (UniProt P27797)
probe-labelled cysteine peptide fold change (10 µM): -0.0987 | probe-labelled cysteine peptide fold change (50 µM): -0.353

BUB1B_O60566_775_EYLICEDYK (UniProt O60566)
probe-labelled cysteine peptide fold change (10 µM): 0.268 | probe-labelled cysteine peptide fold change (50 µM): -0.117

C1QBP_Q07021_186_ALVLDCHYPEDEVGQEDEAESDIFSIR (UniProt Q07021)
probe-labelled cysteine peptide fold change (10 µM): -0.22 | probe-labelled cysteine peptide fold change (50 µM): 0.565

BUB1B_O60566_51_IMSTLQGALAQESACNNTLQQQK (UniProt O60566)
probe-labelled cysteine peptide fold change (10 µM): -0.0722 | probe-labelled cysteine peptide fold change (50 µM): -0.254

BRF1_Q92994_229_RPSGLCGAALLVAAR (UniProt Q92994)
probe-labelled cysteine peptide fold change (10 µM): -0.209 | probe-labelled cysteine peptide fold change (50 µM): -0.228

C16orf62_Q7Z3J2_864_LCETVMAQILEHLK (UniProt Q7Z3J2)
probe-labelled cysteine peptide fold change (10 µM): 0.0209 | probe-labelled cysteine peptide fold change (50 µM): -0.0604

C8orf37_Q96NL8_33_GCGGGTHSSDR (UniProt Q96NL8)
probe-labelled cysteine peptide fold change (10 µM): -0.106 | probe-labelled cysteine peptide fold change (50 µM): -0.297

BRCC3_P46736_38_EEVMGLCIGELNDDTR (UniProt P46736)
probe-labelled cysteine peptide fold change (10 µM): 0.0386 | probe-labelled cysteine peptide fold change (50 µM): 0.0847

BTBD2_Q9BX70_241_LFDEPQLASLCLENIDK (UniProt Q9BX70)
probe-labelled cysteine peptide fold change (10 µM): -0.0428 | probe-labelled cysteine peptide fold change (50 µM): -0.00716

C11orf68_Q9H3H3_214_QVICVYTDDFTDR (UniProt Q9H3H3)
probe-labelled cysteine peptide fold change (10 µM): 0.267 | probe-labelled cysteine peptide fold change (50 µM): -0.0173

C5orf51_A6NDU8_120+130_HCNLLGDELLECLSWR (UniProt A6NDU8)
probe-labelled cysteine peptide fold change (10 µM): -0.398 | probe-labelled cysteine peptide fold change (50 µM): -0.774

CAMSAP1_Q5T5Y3_1487_SNKPIIHNAISHCCLAGK (UniProt Q5T5Y3)
probe-labelled cysteine peptide fold change (10 µM): -0.243 | probe-labelled cysteine peptide fold change (50 µM): -0.526

BRWD3_Q6RI45_1147_DEECER (UniProt Q6RI45)
probe-labelled cysteine peptide fold change (10 µM): 0.179 | probe-labelled cysteine peptide fold change (50 µM): 0.381

C8G_P07360_188_YGFCEAADQFHVLDEVR (UniProt P07360)
probe-labelled cysteine peptide fold change (10 µM): -0.615 | probe-labelled cysteine peptide fold change (50 µM): -0.459

CAP1_Q01518_375_INSITVDNCKK (UniProt Q01518)
probe-labelled cysteine peptide fold change (10 µM): 0.0183 | probe-labelled cysteine peptide fold change (50 µM): -0.152

BRD2_P25440_706_YVLSCLR (UniProt P25440)
probe-labelled cysteine peptide fold change (10 µM): 0.161 | probe-labelled cysteine peptide fold change (50 µM): -0.0522

C16orf62_Q7Z3J2_214_IVIQCSK (UniProt Q7Z3J2)
probe-labelled cysteine peptide fold change (10 µM): 0.0821 | probe-labelled cysteine peptide fold change (50 µM): -0.081

C5orf51_A6NDU8_268_KYVSVCEGPLK (UniProt A6NDU8)
probe-labelled cysteine peptide fold change (10 µM): -0.0332 | probe-labelled cysteine peptide fold change (50 µM): -0.196

BTG3_Q14201_238_NKPYRPIPVTWVPPPGMHCDR (UniProt Q14201)
probe-labelled cysteine peptide fold change (10 µM): -0.582 | probe-labelled cysteine peptide fold change (50 µM): -0.498

CAD_P27708_1529_CDFALFLGASSENAGTLGTVAGSAAGLK (UniProt P27708)
probe-labelled cysteine peptide fold change (10 µM): 0.102 | probe-labelled cysteine peptide fold change (50 µM): 0.0688

BRIP1_Q9BX63_310_SCYFYHGVHK (UniProt Q9BX63)
probe-labelled cysteine peptide fold change (10 µM): 0.0582 | probe-labelled cysteine peptide fold change (50 µM): -0.182

C11orf54_Q9H0W9_149_CHDFQCALLANLFASEGQPGK (UniProt Q9H0W9)
probe-labelled cysteine peptide fold change (10 µM): 0.198 | probe-labelled cysteine peptide fold change (50 µM): -0.4

BRCA1_P38398_712_CSNTSELK (UniProt P38398)
probe-labelled cysteine peptide fold change (10 µM): 0.119 | probe-labelled cysteine peptide fold change (50 µM): 0.0735

CAD_P27708_1636_GLPVTCEVAPHHLFLSHDDLER (UniProt P27708)
probe-labelled cysteine peptide fold change (10 µM): -0.08 | probe-labelled cysteine peptide fold change (50 µM): -0.0722

BST1_Q10588_271+280_LLQCVDHSTHPDCALK (UniProt Q10588)
probe-labelled cysteine peptide fold change (10 µM): -0.384 | probe-labelled cysteine peptide fold change (50 µM): -0.195

BUD31_P41223_134_IIECTHCGCR (UniProt P41223)
probe-labelled cysteine peptide fold change (10 µM): 0.204 | probe-labelled cysteine peptide fold change (50 µM): -0.00885

C16orf62_Q7Z3J2_614_HQQEPTKDPVILNALLHVCK (UniProt Q7Z3J2)
probe-labelled cysteine peptide fold change (10 µM): 0.235 | probe-labelled cysteine peptide fold change (50 µM): 0.0739

C11orf54_Q9H0W9_187_TGPLNFVTCMR (UniProt Q9H0W9)
probe-labelled cysteine peptide fold change (10 µM): 0.136 | probe-labelled cysteine peptide fold change (50 µM): -0.211

BUD31_P41223_137_IIECTHCGCR (UniProt P41223)
probe-labelled cysteine peptide fold change (10 µM): -0.0339 | probe-labelled cysteine peptide fold change (50 µM): -0.0657
